Results on two molecules are retold here after patent publication US20240279202A1 (NURIX THERAPEUTICS, INC., priority 2021, published 2024).

Protein sequences, listed by entry. Tags and fused reporters are not part of them.
UniProt Q08881, whole entry: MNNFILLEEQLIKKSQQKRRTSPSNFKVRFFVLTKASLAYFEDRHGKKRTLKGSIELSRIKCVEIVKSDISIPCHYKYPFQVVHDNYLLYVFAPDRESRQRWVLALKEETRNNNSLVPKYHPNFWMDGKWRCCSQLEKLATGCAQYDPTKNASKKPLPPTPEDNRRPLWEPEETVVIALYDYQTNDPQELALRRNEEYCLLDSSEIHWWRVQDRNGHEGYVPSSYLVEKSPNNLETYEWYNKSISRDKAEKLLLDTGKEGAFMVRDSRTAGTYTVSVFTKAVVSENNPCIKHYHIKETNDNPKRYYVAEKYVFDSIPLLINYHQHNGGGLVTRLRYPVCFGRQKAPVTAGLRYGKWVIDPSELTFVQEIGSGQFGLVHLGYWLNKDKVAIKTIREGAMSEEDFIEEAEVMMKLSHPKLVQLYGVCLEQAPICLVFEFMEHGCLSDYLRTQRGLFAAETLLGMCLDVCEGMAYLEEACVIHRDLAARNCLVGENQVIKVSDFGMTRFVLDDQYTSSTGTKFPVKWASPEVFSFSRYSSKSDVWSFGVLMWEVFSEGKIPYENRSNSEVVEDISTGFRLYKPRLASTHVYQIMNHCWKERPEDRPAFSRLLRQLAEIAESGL

The match of structure and compound is tentative.

This test concerns the target ITK (Homo sapiens, UniProt Q08881). As to the kind of experiment: ITK degradation HiBiT assay. Particulars: C-terminal HiBiT-tagged Molt4 cells, 4 hrs; for DC50: read-out: HiBiT DC50. As to the method:
Itk Degradation Hibit Assay
Compounds provided herein were assayed in vitro with ITK HiBit cell lines. Compound dilution series (11-point, 5 fold dilutions in DMSO, columns 2-12 with replicate in rows A/B, C/D, E/F, G,H at 2000× the final required concentrations were prepared in 96 well plates (Falcon, cat. no. 353077). Column 1, rows A-H were control DMSO. The 2000× solutions ranged from 2 mM to 1.024 nM (final assay concentration range 1 μM to […]). The 2000× solutions were added to cells in […], for a final DMSO concentration of 0.5% and final assay compound concentration of 1×. For the cells, C-terminal HiBiT-tagged Molt4 cells (ATCC CRL-1552, monoclonal cell line clone 1C10) were plated at 1×10^6 cells/mL, 100 μL/well ([…]) in complete RPMI (10% FBS, 1% L-glutamine). The cells were incubated with compound 10 and compound 17 for 4 hrs at […]/6% CO2.
Following incubation, 100 μL of complete Nano-Glo HiBiT Lytic Detection Reagent (Nano-Glo HiBiT Lytic Buffer with 1:50 Nano-Glo HiBiT Lytic Substrate and 1:100 LgBiT Protein; Promega cat. no. N3040) was added. Cells were further incubated for 10 min at room temperature (RT). Luminescence units (LU) were read on an EnVision plate reader (Perkin Elmer, 0.1 sec per well). Percent ITK remaining per sample was calculated as follows: […]
Using Graphpad Prism, % ITK remaining values were plotted as a function of compound concentration. To determine DC50 and Dmax values, resulting curves were fit to the Prism curve-fitting equation “log(inhibitor) vs response—Variable slope (four parameters)” (reported best fit value IC50 used as DC50). ITK was measured with antibody-based MSD (Meso-Scale Discovery) assays shown below.

By DC50 is commonly meant the concentration at which degradation of the target reaches its halfway point. As for `C[C@@]12Cc3[nH]nc(C(=O)Nc4cnn(C5CCN(CC6CCN(c7ccc(C(=O)NC8CCC(=O)NC8=O)cc7)CC6)CC5)c4)c3C[C@@H]1C2(F)F` (stereo partly shown), the “HiBiT DMax (%)” value stood at 81% and the DC50 stood at 4.9 nM.

As to `CC1(C)CCc2c(-c3cc4ccc(C(=O)N5CCN(CC6CCN(c7ccc(C(=O)N[C@H]8CCC(=O)NC8=O)nc7)CC6)CC5)cc4[nH]3)n[nH]c2C1`, the “HiBiT DMax (%)” value was 59% and the DC50 amounted to 8.8 nM.
